Laboratory results reported in PubChem BioAssay AID540275 (National Center for Advancing Translational Sciences (NCATS), 2011).
Hit rate of the full screen: of about 320,000 compounds, about 620 (0.19%) were called active. The shares of active, inactive and inconclusive entries below differ from those in the screen. No stated cut-off is given here; in the data, active means activation above about 80%; inconclusive means between about 30% and that limit; inactive means weaker than that.

Sequences of proteins named here, by UniProt entry; tags and fusion partners are left off.
UniProt Q8NER1, whole entry, looked up: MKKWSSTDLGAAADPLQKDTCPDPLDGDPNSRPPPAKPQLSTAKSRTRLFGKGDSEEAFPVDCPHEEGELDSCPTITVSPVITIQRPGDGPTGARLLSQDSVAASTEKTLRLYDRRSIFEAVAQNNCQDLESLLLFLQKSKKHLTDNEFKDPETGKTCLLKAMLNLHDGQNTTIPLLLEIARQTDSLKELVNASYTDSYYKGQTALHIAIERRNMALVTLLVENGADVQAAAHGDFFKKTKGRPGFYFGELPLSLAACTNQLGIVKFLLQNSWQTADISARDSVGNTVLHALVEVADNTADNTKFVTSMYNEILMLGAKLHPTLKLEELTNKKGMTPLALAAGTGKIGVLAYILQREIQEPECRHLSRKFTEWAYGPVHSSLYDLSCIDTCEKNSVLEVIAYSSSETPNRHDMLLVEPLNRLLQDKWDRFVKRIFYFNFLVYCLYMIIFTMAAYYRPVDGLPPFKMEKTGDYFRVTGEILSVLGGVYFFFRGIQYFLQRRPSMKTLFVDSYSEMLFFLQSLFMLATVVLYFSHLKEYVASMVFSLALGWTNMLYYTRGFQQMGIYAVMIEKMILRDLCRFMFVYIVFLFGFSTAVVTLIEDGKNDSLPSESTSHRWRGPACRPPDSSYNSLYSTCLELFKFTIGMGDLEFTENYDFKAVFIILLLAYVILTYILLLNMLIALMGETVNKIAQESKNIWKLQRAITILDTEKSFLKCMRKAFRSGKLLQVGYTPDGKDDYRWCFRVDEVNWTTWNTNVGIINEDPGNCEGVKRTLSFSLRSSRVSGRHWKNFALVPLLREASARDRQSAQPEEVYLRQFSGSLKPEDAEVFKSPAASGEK

What follows are compounds tested against Transient receptor potential cation channel subfamily V member 1 (Homo sapiens) (UniProt Q8NER1) (assay: HTS Assay for Compounds that Act as Agonists of the Vanilloid Receptor 1). Conditions: TRPV1-expressing cells, Fluo-8 calcium influx, agonist mode; at 8.33 µM, stronger effect = higher value.
Outline: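 TRPV1-expressing cells were cultured overnight at 35.5C and loaded with Fluo-8 calcium dye for 40 to 90 min at room temperature. After a 10 s baseline, compound was added and calcium influx was read kinetically for 3 min (ex 480/em 520 nm).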
Further: 0% is about no effect.

SMILES | activation
CCNc1nc(Oc2ccc(=O)[nH]n2)nc(SC)n1 | inactive: 0.954%
O=C(Nc1cccnc1)C1(F)C(F)(F)C(F)(F)C(F)(F)C(F)(F)C1(F)F | inconclusive: 32.3%
Cc1cccn2c(=O)c(/C=C(\C#N)S(=O)(=O)c3ccccc3)c(N3CCN(C)CC3)nc12 | inconclusive: 37%
CC1CCN(C(=S)c2ccc(N(C)C)cc2)CC1 | inactive: 0.745%
O=C(Nc1cccnc1)c1ccc([N+](=O)[O-])s1 | inactive: 2%
O=[N+]([O-])c1cc([N+](=O)[O-])c(Oc2c(F)ccc(F)c2F)cc1NN1CCCCC1 | active: 80.2%
Fc1cccc(Cl)c1CNc1ccc(N2CCCC2)cc1 | inactive: -0.917%
CCCc1ccc(Oc2cn[nH]c2-c2ccc(O)c(C)c2O)cc1 | inactive: -5.45%
CN(Cc1ccccc1)C(=O)COc1ccccc1 | inconclusive: 40.5%
Cn1cccc1/C=N/n1c(-c2ccc(C(C)(C)C)cc2)n[nH]c1=S | inactive: 18.1%
Cc1cccc(N2CCN(C(=O)C3CCC(CNS(=O)(=O)c4cccs4)CC3)CC2)c1C (stereo not given) | inactive: -0.738%
Cc1cc(/C=C2\Cc3ccccc3C2=O)c(C)n1-c1ccccc1 | active: 86%
Cc1cc(=O)oc2cc(OCc3nnc(-c4ccccc4Br)o3)ccc12 | inactive: -3.97%
Cc1ccc(C(=O)Nc2ccc(S(=O)(=O)N3CCc4ccccc43)cc2)o1 | inconclusive: 54.4%
CCOc1cc(C(=O)Nc2ccccc2N2CCN(S(C)(=O)=O)CC2)cc(OCC)c1OCC | inactive: 4.87%
CC(C)(CC(=O)OCC(=O)Nc1ccccc1F)CC1=NS(=O)(=O)c2ccccc2N1 | inactive: 2.61%
CCCOP(=O)(OCCC)C(Nc1ccc(C(C)C)cc1)c1ccc([N+](=O)[O-])cc1 (stereo not given) | inconclusive: 63.2%
Cc1cc(N/N=C/c2ccccc2O)nc(-c2ccccc2O)n1 | inconclusive: 65.4%
CCC1=Nc2cc(C(=O)NCC3CCCO3)ccc2Sc2ccc(Cl)cc21 (stereo not given) | inconclusive: 53.8%
O=C(Nc1cccc2ccccc12)c1cc2c(cc1Br)OCO2 | inconclusive: 39.2%
COC(=O)CSc1ncnc2c1cnn2Cc1ccccc1 | inactive: 29.8%
COc1ccc(CNC(=O)CSc2nc(-c3ccccc3)cc(-c3cccs3)c2C#N)cc1 | inactive: 0.417%
c1ccc(Cn2ncc3c(Nc4ccccc4)ncnc32)cc1 | inconclusive: 70%

SMILES | activation
CCOC(=O)C(C)Sc1nc2ccccc2c(=O)n1CC1CCCCC1 (stereo not given) | inconclusive: 48%
CCOc1ccc2[nH]c3c(NCCc4ccc(OC)c(OC)c4)ncnc3c2c1 | inconclusive: 73.8%
Cc1ccc(S(=O)(=O)N2CCOCC2)cc1NC(=O)CSc1ccc(Cl)cc1 | inactive: 22%
O=S(=O)(NCCC1CC1(Cl)Cl)c1ccc(Cl)cc1 (stereo not given) | inactive: 8.09%
CN(C)C(CNC(C(=O)Nc1ccc([N+](=O)[O-])cc1Br)c1ccccc1)c1ccccc1 (stereo not given) | inactive: 0.707%
CN(C)S(=O)(=O)N1CCN(c2ccccc2Cl)CC1 | inactive: 8.62%
CCOC(=O)CCCCNC(=O)Nc1ccccc1 | inconclusive: 31.7%
COc1ccc(/C=C/C(=O)OCC(=O)Nc2cc3oc4ccccc4c3cc2OC)cc1 | inactive: 0.251%
Nc1c(C(=O)Nc2nccs2)sc2nc(-c3cccs3)cc(C(F)(F)F)c12 | inactive: -1.11%
COc1ccc(CNC(=O)COC(=O)CCC2CCCCC2)cc1 | inconclusive: 45%
COc1ccc(CCC(=O)NNC(=O)c2ccccn2)cc1OC | inactive: -0.768%
CCc1c(C)nc2[nH]nc(-c3ccccc3C)n2c1=O | inactive: -3.7%
CCOc1ccccc1C(=O)NC(C(=O)N(C)Cc1ccc2c(c1)OCO2)C(C)C (stereo not given) | inconclusive: 42.6%
Fc1ccc(NC(=S)NCc2ccccc2)cc1 | inconclusive: 50.9%
CSc1nnc(Cn2c(=O)sc3ccccc32)n1CCc1ccccc1 | inconclusive: 35.5%
O=C(Cn1nnc2ccccc21)c1ccc(Br)cc1 | inconclusive: 43.2%
CN1c2ccccc2C(C)(C)C12C=Cc1cc(O)ccc1O2 (stereo not given) | inactive: -6.41%
CCOc1ccc(NC(=O)N2CCC(n3nnc4cc(C)ccc43)CC2)cc1 | inconclusive: 40.1%
O=C(NCCc1ccccc1)c1ccc(-c2ccc(F)cc2)o1 | inconclusive: 52.4%
CCC(CC)C(=O)Nc1ccc(C)cc1O | inconclusive: 36%
CC(C)c1ccc(NC2CCCN(C(=O)c3cnsn3)C2)cc1 (stereo not given) | inconclusive: 68.4%
COc1ccccc1CNC(=S)Nc1cc(C)ccc1C | inconclusive: 34.1%
CCCN1C/C(=C/c2ccc3c(c2)OCO3)C(=O)/C(=C/c2ccc3c(c2)OCO3)C1 | inactive: -3.11%

SMILES | activation
O=C(Oc1cccc2cccnc12)c1cccc([N+](=O)[O-])c1 | inactive: -0.747%
CCOC(=O)c1c(NC(=O)CSc2nc3ccc(C)cc3[nH]2)sc2c1CC(C)(C)NC2(C)C | inconclusive: 62.8%
Cc1ccc(Cn2cccc(NC(=O)CCC3CCCC3)c2=O)cc1 | inconclusive: 32.8%
Cc1ccc(Nc2nnc(SCC(=O)Nc3ccccc3[N+](=O)[O-])s2)cc1 | inconclusive: 37.3%
CCOCCCNC(=O)c1cn(CC)c2ccc(S(=O)(=O)N3CCC(C)CC3)cc2c1=O | inconclusive: 48.2%
CCc1c(C)sc2nc(C(C)C)nc(SCC(=O)N3CCc4ccccc4C3)c12 | inconclusive: 47.2%
CCOc1ccc(NC(=O)c2ccc3c(=O)n(-c4ccc(OC)cc4OC)c(=S)[nH]c3c2)cc1 | inconclusive: 53.6%
Cc1cc(/C=N/NC(=O)CC#N)c(C)n1-c1ccc([N+](=O)[O-])cc1 | inactive: 2.1%
COc1ccc(/C=C/C(=O)Oc2cc(O)cc(O)c2)cc1 | inconclusive: 50.5%
COc1ccc2c(/C=C/c3cc[n+](C)cc3)c[nH]c2c1 | inactive: 0.674%
Cc1ccc(Oc2nc3c(c(=O)n(Cc4ccccc4F)c(=O)n3C)n2C)cc1 | inconclusive: 47.1%
COc1ccccc1/C=C\C=N\n1c(C2CCCCC2)n[nH]c1=S | inconclusive: 30.3%
c1ccc(CCc2nc3ccccc3[nH]2)cc1 | inconclusive: 46.5%
CC(C)NC(=S)N1CCC(Cc2ccccc2)CC1 | inconclusive: 33.4%
Cc1nc2ccccc2n1CC(O)COc1ccc(Br)cc1 (stereo not given) | inactive: 12.1%
CCc1noc(C)c1C(=O)Nc1cc(C(F)(F)F)ccc1-n1cncn1 | inconclusive: 39.3%
Cc1ccc2cc(CN(CC3CCCO3)S(=O)(=O)c3c(C)ccc4nsnc34)c(=O)[nH]c2c1 (stereo not given) | inactive: -0.962%
CCOc1ccc(NC(=O)c2ccc(CSc3nnc(C)s3)cc2)cc1 | inconclusive: 53.3%
c1ccc(-c2nc3c(ccc4ccccc43)[nH]2)nc1 | inconclusive: 40.8%
COc1cccc(CNC(=O)CCC2CCCN(C(=O)c3cccc(Cl)c3)C2)c1 (stereo not given) | inconclusive: 39.8%
CN(C)CCNC(=S)Nc1cccc(Cl)c1 | inactive: 0.0535%
CCCCOc1cccc(C2/C(=C(/O)c3ccc4c(c3)CC(C)O4)C(=O)C(=O)N2CCN2CCOCC2)c1 (stereo not given) | inactive: -1.37%
N=c1sccn1CC(=O)Nc1cc(Cl)ccc1Oc1ccccc1 | inconclusive: 49.2%

SMILES | activation
O=C1N=C(N2CCCC2)S/C1=C\c1cccc(Br)c1 | inconclusive: 64.1%
CCCN(CCC)S(=O)(=O)c1ccc(C(=O)Nc2nnc(-c3cc(OC)cc(OC)c3)o2)cc1 | inactive: -0.0111%
Cc1ccc(OCCC(=O)OCC(=O)Nc2ccc3c(c2)OCO3)cc1 | inconclusive: 40%
COc1ccc(/C=C(/CC(=O)Nc2ccccc2)c2nc3ccccc3s2)cc1 | inconclusive: 56.7%
Cc1ccc(Cl)cc1N1CCN(C(=O)CCS(=O)(=O)c2ccc3c(c2)NC(=O)CO3)CC1 | inconclusive: 49%
Cc1ccc(-n2nc3c(N4CCC(C(=O)NCc5ccccc5C)CC4)nnc(C)c3c2C)cc1 | inconclusive: 49.9%
Clc1ccc(COn2c(-c3ccccc3)nc3ccccc32)cc1 | inconclusive: 40.6%
CCOC(=O)N1CCN(C(=O)/C(=C/c2ccc(Br)cc2)NC(=O)c2ccc(OC)cc2)CC1 | inactive: -0.0439%
COc1cccc(N2CCN(C(=O)CCSCc3ccccc3F)CC2)c1 | inconclusive: 30.3%
Nc1cc(=O)[nH]c2nnc(SCC(=O)Nc3cccc4ccccc34)n12 | inactive: -1.95%
CCOc1nc(Nc2ccc(OC)c(Cl)c2)nc(OCC)n1 | inconclusive: 39.4%
COC(=O)c1nn(-c2cccc(C)c2)c2nnc(Cc3ccccc3)c(=O)n12 | inconclusive: 36.2%
CC(=O)Nc1ccc(S(=O)(=O)N2CCN(c3nc(NC4CCCC4)c4ccccc4n3)CC2)cc1 | inactive: -0.0085%
COC1=C/C(=C/c2c(N)n3nc(CC(=O)N4CCCC4)sc3nc2=O)C=CC1=O | inactive: 3.76%
O=C(Nc1nccs1)c1ccccn1 | inactive: 0.0927%
CCN(CC)c1ccc(C(=O)Nc2ccccc2)cc1[N+](=O)[O-] | active: 81.9%
CCOC(=O)c1sc(Nc2nc3c(OC)cccc3s2)nc1C | inactive: 1.75%
CC(C)Oc1ccc(S(=O)(=O)N2CCOCC2)cc1NC(=O)Cc1c(F)cccc1Cl | inconclusive: 57%
O=C(Nc1ccccc1)Nc1ccc(-n2ccc(C(F)(F)F)n2)cc1 | inconclusive: 61%
COc1ccc(Cc2nc(C(=O)Nc3ccc(Cl)cc3)cs2)cc1 | inconclusive: 34.9%
CCOC(=O)N1CCN(C(=S)NC(=O)C23CC4CC(CC(C4)C2)C3)CC1 | inconclusive: 31.5%

3 compounds out of the list, ordered by length of the SMILES, ascending.
SMILES | activation
CCOC(=O)c1sc(Nc2nc3c(OC)cccc3s2)nc1C | inactive: 1.75%
COC1=C/C(=C/c2c(N)n3nc(CC(=O)N4CCCC4)sc3nc2=O)C=CC1=O | inactive: 3.76%
CC(=O)Nc1ccc(S(=O)(=O)N2CCN(c3nc(NC4CCCC4)c4ccccc4n3)CC2)cc1 | inactive: -0.0085%

Quoted from the listing.
In activation, CCc1noc(C)c1C(=O)Nc1cc(C(F)(F)F)ccc1-n1cncn1 is listed with inconclusive: 39.3%
In activation, O=S(=O)(NCCC1CC1(Cl)Cl)c1ccc(Cl)cc1 (stereo not given) is listed with inactive: 8.09%
In activation, CCNc1nc(Oc2ccc(=O)[nH]n2)nc(SC)n1 is listed with inactive: 0.954%
In activation, Fc1cccc(Cl)c1CNc1ccc(N2CCCC2)cc1 is listed with inactive: -0.917%
